According to PubChem BioAssay AID720711 (National Center for Advancing Translational Sciences (NCATS), 2013):
The campaign covered roughly 360,000 compounds. About 290 (0.081%) were called active. This list was built around the results that the source calls inconclusive (neither active nor inactive); the mix of calls is not that of the screen. Calls come from the whole dose curve; as a rule, active = well fitted activation curve with a large enough effect; inconclusive = small, poorly fitted or top-dose-only effect; inactive = no such curve, though single readings can be large or run the other way. Potencies beside an inconclusive call are fits to weak or partial responses and may not hold up.
Note: nearly all actives have a fitted effect of over 50% in size.
Potency is the fitted concentration of half-maximal effect.

Protein sequences, listed by entry. Tags and fused reporters are not part of them.
UniProt Q8WZA2, whole entry, looked up: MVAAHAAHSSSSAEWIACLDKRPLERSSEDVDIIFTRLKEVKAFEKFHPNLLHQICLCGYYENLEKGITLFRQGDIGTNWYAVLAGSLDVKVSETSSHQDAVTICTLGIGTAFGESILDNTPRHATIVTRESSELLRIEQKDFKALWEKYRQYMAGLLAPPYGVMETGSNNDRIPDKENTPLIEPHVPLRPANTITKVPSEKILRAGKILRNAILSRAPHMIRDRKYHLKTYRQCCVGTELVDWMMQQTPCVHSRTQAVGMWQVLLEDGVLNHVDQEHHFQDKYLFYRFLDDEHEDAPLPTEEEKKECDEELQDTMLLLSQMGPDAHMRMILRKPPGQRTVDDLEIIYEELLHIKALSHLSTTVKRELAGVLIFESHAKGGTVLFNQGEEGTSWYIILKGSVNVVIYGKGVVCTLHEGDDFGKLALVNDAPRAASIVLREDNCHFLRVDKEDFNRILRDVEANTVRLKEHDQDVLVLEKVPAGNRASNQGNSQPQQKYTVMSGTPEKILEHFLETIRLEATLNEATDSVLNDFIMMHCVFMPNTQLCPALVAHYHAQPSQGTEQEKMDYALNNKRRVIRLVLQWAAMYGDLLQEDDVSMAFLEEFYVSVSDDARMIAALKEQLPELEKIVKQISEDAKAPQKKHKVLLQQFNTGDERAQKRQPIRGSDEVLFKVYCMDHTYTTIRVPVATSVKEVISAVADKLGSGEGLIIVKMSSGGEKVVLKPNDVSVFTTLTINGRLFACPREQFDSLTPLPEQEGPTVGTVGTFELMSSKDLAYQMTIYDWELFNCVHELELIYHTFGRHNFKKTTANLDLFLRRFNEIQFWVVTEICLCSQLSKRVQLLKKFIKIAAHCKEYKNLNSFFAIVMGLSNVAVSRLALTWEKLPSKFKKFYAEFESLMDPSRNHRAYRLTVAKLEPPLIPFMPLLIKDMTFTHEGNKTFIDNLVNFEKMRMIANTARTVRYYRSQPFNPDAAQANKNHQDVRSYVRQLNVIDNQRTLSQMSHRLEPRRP

What follows are compounds tested against Rap guanine nucleotide exchange factor 4 (Homo sapiens) (UniProt Q8WZA2) (assay: qHTS for Agonist of cAMP-regulated guanine nucleotide exchange factor 4 (EPAC2): primary screen). Conditions: biochemical qHTS; Potency: EPAC2 activation unless noted; activation: at 154 µM (top of the series), 100% = 6.5 mM cAMP response unless noted.
Outline: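 In this primary screen, activation is scored as increased exchange of BODIPY-GDP from Rap1B by 100 nM EPAC2, with 50 uM GDP as competitor. Signal is normalized to the 6.5 mM cAMP agonist control.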
`O=C(NCC(=O)N(CC1CCCO1)C(C(=O)NC1CCCC1)c1cccnc1)c1ccco1` (centres undefined) was tested, and the “activation” value was inactive: -3.77%. With `CCCCN1C(=O)/C(=C/C=C2\Oc3ccccc3N2CC)SC1=S` the Potency was active: 31.6 µM. With `CCOC(=O)[C@]12CCCC=C1N(CCC1=CCCCC1)C(=O)[C@H](CC(=O)NCCCN1CCCC1=O)C2` the “activation” value was inactive: 11.7%. For `CC1=[N+](C)c2c(ccc3cccnc23)C1(C)C`, the Potency was inconclusive: 126 µM [activator, single point]. In the case of `CCc1ccc[n+](-c2[nH]c(=O)sc2/C=N/NC([S-])=Nc2ccccc2)c1`, the Potency is reported as inconclusive: 112 µM [activator, single point]. In the case of `CCc1nc2c(OCCOc3ccccc3)cccn2c1N(C)C(=O)c1ccc(C)cc1`, the Potency is reported as inconclusive: 31.6 µM [activator, partial curve]. For `O=C(Nc1ccc(-c2nc3ccc(NC(=O)c4cccs4)cc3[nH]2)cc1)c1cccs1`, the Potency was inconclusive: 126 µM [activator, single point]. `COc1ccccc1CN1CCN(C(c2ccccc2)c2ccccc2)CC1` was tested, and the Potency was inconclusive: 79.4 µM [activator, partial curve]. In the case of `CC(C)CC(=NNC(=O)c1ccncc1)c1cc(Cl)ccc1O`, the Potency is reported as inconclusive: 25.1 µM [activator, full curve]. For `Cc1ccc(NC(C)c2cc(Cl)ccc2O)cc1` (centres undefined), the Potency was inconclusive: 100 µM [activator, partial curve]. In the case of `N=C(N)c1ccc(N=Nc2c(O)ccc3c2[nH]c2ccccc23)cc1`, the Potency is reported as inconclusive: 39.8 µM [activator, full curve]. For `N#Cc1c(/N=C/c2ccco2)sc2c1CCC2`, the Potency was active: 10 µM. `C1=C(c2ccc(-c3ccccc3)cc2)Nc2ncnn2C1c1ccco1` (centres undefined) was tested, and the Potency was active: 100 µM. With `CS(=O)(=O)Nc1cccc(C2=NN(C(=O)c3cccc(F)c3)C(c3cccs3)C2)c1` (centres undefined) the Potency was inconclusive: 89.1 µM [activator, partial curve]. In the case of `O=C(CSc1nnc(-c2cccs2)n1Cc1ccco1)Nc1ccc2c(c1)OCO2`, the Potency is reported as active: 7.94 µM. With `Cc1ccc(C)c(N2CCN(S(=O)(=O)c3ccc4c(c3)C(C)(C)C(=O)N4C)CC2)c1` the Potency was inconclusive: 126 µM [activator, partial curve]. In the case of `COc1ccc(NC(=O)CSCC(=O)Nc2cccc3ncccc23)cc1`, the Potency is reported as inconclusive: 112 µM [activator, partial curve, poor fit]. For `O=C1c2ccccc2C(Nc2ccc(S(=O)(=O)N3CCOCC3)cc2)N1Cc1ccco1` (centres undefined), the activation was inconclusive: 9.04% [activator]. For `CN(C)c1ccc(/C=N/n2cnn(Cc3ccccc3Cl)c2=S)cc1`, the “activation” value was inactive: 9.67%. For `COc1ccc(-c2csc(=NCCO)n2-c2ccccc2)cc1`, the Potency was inconclusive: 112 µM [activator, partial curve]. With `CCCCn1c(N)c(N(CCC(C)C)C(=O)C2CCCN(C(=O)c3ccc(Cl)cc3)C2)c(=O)[nH]c1=O` (centres undefined) the Potency was inconclusive: 50.1 µM [activator, single point]. In the case of `CCC1C(=O)N=C(SCC(=O)Nc2ccccc2)NC1=O` (centres undefined), the activation is reported as inconclusive: 34.6% [activator] [at 15.6 µM, 100% = 6.5 mM cAMP response]. With `C(#CC12CC3CC(CC(C3)C1)C2)CN1CCOCC1` the “activation” value was inactive: -1.99%. In the case of `COc1ccc(NS(=O)(=O)c2cn(C)cn2)cc1Cl`, the “activation” value is reported as inactive: -0.778%. With `COc1ccc(-c2nc(N/N=C(\C)c3ccc(O)cc3)c3ccccc3n2)cc1` the Potency was inconclusive: 100 µM [activator, partial curve]. In the case of `C[C@@]12C(=O)Nc3cc(F)ccc3C(=O)N1[C@H]1c3cc(Br)ccc3OC[C@@H]1[C@@H]2c1ccccc1`, the Potency is reported as active: 79.4 µM. For `NC(=O)CC(NC(=O)Cc1cccc2ccccc12)c1ccc(NC2CCN(Cc3ccccc3)CC2)c([N+](=O)[O-])c1` (centres undefined), the “activation” value was inactive: 2.56%. `COc1ccc(C(=O)N/N=C/c2sc3ccccc3c2O)cc1` was tested, and the Potency was inconclusive: 112 µM [activator, single point]. In the case of `O=C(NCc1ccc(F)cc1)c1cccc2c1C(=O)c1ccc(N3CCOCC3)cc1S2(=O)=O`, the Potency is reported as inconclusive: 22.4 µM [activator, full curve]. `O=c1c2ccccc2nc(-c2ccoc2)n1CCc1ccccc1` was tested, and the Potency was inconclusive: 89.1 µM [activator, partial curve]. In the case of `COc1ccc(/C=N/NC(=O)c2ccccc2O)cc1Cn1cc([N+](=O)[O-])cn1`, the “activation” value is reported as inactive: 4.16%. `Cc1ccc2nc3sc(C(=O)Nc4c(C)[nH]c(=O)[nH]c4=O)c(N)c3cc2c1` was tested, and the Potency was inconclusive: 112 µM [activator, single point]. With `Cc1cc(/C=N/NC(N)=S)c(O)c(/C=N/NC(N)=S)c1` the Potency was inconclusive: 50.1 µM [activator, full curve, poor fit]. `CCOC(=O)C1=C(O)c2ccccc2C(=O)/C1=C\c1ccc(CC)cc1` was tested, and the “activation” value was inactive: 6.28%. With `CC(C)Nc1oc(-c2cccc3ccccc23)nc1C#N` the Potency was inconclusive: 112 µM [activator, single point]. In the case of `Cc1c2ccncc2cc2c1[nH]c1ccccc12`, the Potency is reported as inconclusive: 112 µM [activator, partial curve]. With `O=C(O)c1cccc2c1C(=O)N(C1CCCCC1)C2` the Potency was inconclusive: 126 µM [activator, single point]. With `N#C/C(=C\c1coc2ccc(O)cc2c1=O)C(=O)Nc1nc2ccccc2s1` the Potency was active: 31.6 µM. `O=C(COC(=O)C1CCCCC1)Nc1ccc(N2CCCCC2)cc1` was tested, and the Potency was inconclusive: 126 µM [activator, single point]. In the case of `COc1cccc(-c2ccc(NC(=O)C3CCCN(Cc4cnc(C)n4C)C3)cc2)c1` (centres undefined), the “activation” value is reported as inactive: -2.48%. In the case of `Cc1cc(Nc2cccc(F)c2)n2ncnc2n1`, the Potency is reported as inconclusive: 112 µM [activator, single point]. In the case of `CC1C(=O)C(C)C(c2cc(Cl)ccc2O)NC1c1cc(Cl)ccc1O` (centres undefined), the Potency is reported as inconclusive: 100 µM [activator, single point]. For `COc1cc(/C=C2\SC(=S)N(NS(=O)(=O)c3ccccc3)C2=O)ccc1O`, the “activation” value was inactive: -0.853%. In the case of `COc1ccc2nc3ccccc3nc2c1NC(=O)c1ccc(Cl)cc1Cl`, the Potency is reported as active: 100 µM.
